Record: PubChem BioAssay AID1053208 (Peter MacCallum Cancer Centre, 2014)
Here is a random part of about 17,000 reagents tested. Over the whole deposit, 788 (4.7%) are marked active. 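Calls rest on z-score classes alone; an extra cut-off of viability at most 70% of control was not applied to them.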 Unmarked entries are inactive. Further read-outs or replicates are left out here.

Test: 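Genes whose silencing cuts survival of bone tumour cells only with doxorubicin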 (primary screen)
Cells: mouse osteosarcoma cells, early-passage culture from an engineered mouse model of fibroblastic bone tumour
Reagents: siRNA pool against mouse genes, 40 nM
Timing: about 120 h (48 h before drug, then 72 h with drug)
Treatment: doxorubicin 100 nM for 72 h, roughly 30-40% inhibitory dose
Measured: 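Luminescent ATP signal taken as viability with or without 100 nM doxorubicin for 72 h; mean of two wells set against non-targeting siRNA and turned into robust z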
Scale: viability z-score with doxorubicin: higher = more viable cells under doxorubicin; viability z-score without drug: higher = more viable cells with knock-down alone
Rule for the call: 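Called active if knock-down leaves viability unchanged without drug (z within -2 to 2) but lowers it with doxorubicin (z at or under -2)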

With knock-down of Prkrip1 (Prkr interacting protein 1 (IL11 inducible)), the record shows combined z-score class high cell count with and without drug; viability z-score with doxorubicin 2.59; viability z-score without drug 2.19.
Depletion of Slc9a7 resulted in: combined z-score class no change with or without drug; viability z-score with doxorubicin 0.34; viability z-score without drug 0.34.
After knock-down of Serhl (serine hydrolase-like) the results were combined z-score class no change with or without drug; viability z-score with doxorubicin 0; viability z-score without drug 1.18.
Dbf4 (DBF4 zinc finger) scored combined z-score class no change with or without drug; viability z-score with doxorubicin 0.45; viability z-score without drug 0.51.
With knock-down of Drc8 (dynein regulatory complex subunit 8), the record shows combined z-score class low cell count with doxorubicin only (active); viability z-score with doxorubicin -2.02; viability z-score without drug 0.67.
Dmbt1 (deleted in malignant brain tumors 1) gave combined z-score class no change with or without drug; viability z-score with doxorubicin 0.45; viability z-score without drug 1.18.
Silencing of Tgm5 (transglutaminase 5) gave: combined z-score class no change with or without drug; viability z-score with doxorubicin -0.67; viability z-score without drug -0.51.
For Ttyh1 (tweety family member 1) the deposit lists combined z-score class low cell count with doxorubicin only (active); viability z-score with doxorubicin -2.92; viability z-score without drug -0.84.
With knock-down of Cltb (clathrin light chain B), the screen gave combined z-score class no change with or without drug; viability z-score with doxorubicin -0.11; viability z-score without drug -0.51.
Against Pramel12 (PRAME like 12), the values are combined z-score class no change with or without drug; viability z-score with doxorubicin 1.35; viability z-score without drug 0.34.
With knock-down of Gpc5 (glypican 5), the screen gave combined z-score class no change with or without drug; viability z-score with doxorubicin -0.22; viability z-score without drug 0.67.
For Or1o3 (olfactory receptor family 1 subfamily O member 3) the deposit lists combined z-score class low cell count with doxorubicin only (active); viability z-score with doxorubicin -2.14; viability z-score without drug -0.51.
For Zscan29 (zinc finger SCAN domains 29), the entry reads combined z-score class no change with or without drug; viability z-score with doxorubicin 0.11; viability z-score without drug -0.51.
Knock-down of Brap (BRCA1 associated protein) resulted in: combined z-score class no change with or without drug; viability z-score with doxorubicin 0.9; viability z-score without drug -0.17.
For H2bc27 (H2B clustered histone 27), the values are combined z-score class no change with or without drug; viability z-score with doxorubicin 0.45; viability z-score without drug -0.51.
Against Wnt7b (WNT family member 7B), the entry reads combined z-score class no change with or without drug; viability z-score with doxorubicin -1.24; viability z-score without drug -0.17.
Silencing of P2rx6 (purinergic receptor P2X, ligand-gated ion channel, 6) came out at: combined z-score class high cell count with doxorubicin only; viability z-score with doxorubicin 2.02; viability z-score without drug 0.34.
Against Fgf1 (fibroblast growth factor 1), the values are combined z-score class no change with or without drug; viability z-score with doxorubicin 0.56; viability z-score without drug -0.51.
Depletion of Setd5 (SET domain containing 5) resulted in: combined z-score class no change with or without drug; viability z-score with doxorubicin -0.22; viability z-score without drug -0.84.
Kcnj1 (potassium inwardly-rectifying channel, subfamily J, member 1) showed combined z-score class no change with or without drug; viability z-score with doxorubicin 1.35; viability z-score without drug 1.01.
Against Diaph2 (diaphanous related formin 2), the entry reads combined z-score class no change with or without drug; viability z-score with doxorubicin 1.57; viability z-score without drug -0.17.
For Fktn (fukutin), the entry reads combined z-score class no change with or without drug; viability z-score with doxorubicin -0.67; viability z-score without drug 1.18.
Depletion of Wipi1 (WD repeat domain, phosphoinositide interacting 1) resulted in: combined z-score class no change with or without drug; viability z-score with doxorubicin 0.45; viability z-score without drug 1.18.
Or8b50 (olfactory receptor family 8 subfamily B member 50) gave combined z-score class no change with or without drug; viability z-score with doxorubicin 1.35; viability z-score without drug 0.67.
After knock-down of Wdr24 (WD repeat domain 24) the results were combined z-score class high cell count without drug only; viability z-score with doxorubicin 1.01; viability z-score without drug 2.19.
Nek9 (NIMA (never in mitosis gene a)-related expressed kinase 9) showed combined z-score class no change with or without drug; viability z-score with doxorubicin 0; viability z-score without drug 1.52.
With knock-down of Slc16a1, the screen gave combined z-score class no change with or without drug; viability z-score with doxorubicin 0; viability z-score without drug 1.52.
Or5d16 (olfactory receptor family 5 subfamily D member 16) showed combined z-score class low cell count with doxorubicin only (active); viability z-score with doxorubicin -2.02; viability z-score without drug -1.35.

Reagents listed above marked active (4):
Drc8 (dynein regulatory complex subunit 8) | combined z-score class: low cell count with doxorubicin only (active); viability z-score with doxorubicin: -2.02; viability z-score without drug: 0.67
Ttyh1 (tweety family member 1) | combined z-score class: low cell count with doxorubicin only (active); viability z-score with doxorubicin: -2.92; viability z-score without drug: -0.84
Or1o3 (olfactory receptor family 1 subfamily O member 3) | combined z-score class: low cell count with doxorubicin only (active); viability z-score with doxorubicin: -2.14; viability z-score without drug: -0.51
Or5d16 (olfactory receptor family 5 subfamily D member 16) | combined z-score class: low cell count with doxorubicin only (active); viability z-score with doxorubicin: -2.02; viability z-score without drug: -1.35
